Source: PubChem BioAssay AID624291 (National Center for Advancing Translational Sciences (NCATS), 2012)
The campaign covered roughly 350,000 compounds. About 220 (0.063%) were called active. This list was built around the results that the source calls inconclusive (neither active nor inactive); the mix of calls is not that of the screen. Calls come from the whole dose curve; as a rule, active = well fitted activation curve with a large enough effect; inconclusive = small, poorly fitted or top-dose-only effect; inactive = no such curve, though single readings can be large or run the other way. Potencies beside an inconclusive call are fits to weak or partial responses and may not hold up.

Experiment: qHTS for Activators of Integrin-Mediated Alleviation for Muscular Dystrophy; note: nearly all actives have a fitted effect of over 60% in size;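 for activation: 100% = response of the positive control SU9516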
Settings: alpha7betagal myoblasts, beta-gal FDG fluorescence, 48 h; activation: at 38.3 µM (top of the series)
Summary of the method: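 alpha7betagal+/- myoblasts (passage 13, 250/well) treated 48 h at 37C with compounds at 1:260 dilution of DMSO stock. Lysed, then beta-galactosidase activity read as FDG fluorescence (ex 480/em 540) after 30 min, with pre-read for autofluorescence.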
Potency is the fitted concentration of half-maximal effect.

Potency, inconclusive:
CCOc1cc(/C=N/NC(=O)C(OC)c2ccccc2)ccc1O (stereo not given) 5.01 µM [activator, partial curve, poor fit], CCN(CC)c1cc(C)c2cc(NC(=O)c3ccccc3OC)ccc2n1 1.58 µM [activator, single point], Cc1ccc(CNC(=O)CN(C)S(=O)(=O)c2ccc(F)cc2)cc1 5.01 µM [activator, single point], Cc1nc2ccccn2c1-c1ccnn1S(=O)(=O)c1ccc(F)cc1 3.98 µM [activator, single point], CN1C(N)=NC(=O)/C1=C\c1ccc(Br)cc1 7.08 µM [activator, partial curve, poor fit], CC1CN(C(=S)NC2CCCC2)CC(C)O1 (stereo not given) 3.98 µM [activator, single point], Cc1ccccc1OCC(=O)OCC(=O)Nc1ccc(Cl)cn1 1.41 µM [activator, partial curve, poor fit], O=C(CSc1nnc(C2COc3ccccc3O2)o1)N1CCOCC1 (stereo not given) 0.355 µM [activator, full curve, poor fit], CC(C)C(=O)N=c1sc2cccc(F)c2n1C 5.01 µM [activator, single point], O=S(=O)(Nc1cc(S(=O)(=O)N2CCOCC2)ccc1NCC1CCCO1)c1ccccc1F (stereo not given) 3.16 µM [activator, single point], CSc1ccc(CNc2ccc(Cl)cc2)cc1 5.01 µM [activator, single point], O=C(NCc1ccc(Cl)cc1Cl)C1CC(=O)N(Cc2ccccc2)C1 (stereo not given) 15.8 µM [activator, single point], COc1ccccc1C(=O)NCCCNC(=O)c1cnccn1 5.62 µM [activator, partial curve, poor fit], CCOC(=O)CN(c1ccccn1)S(=O)(=O)c1ccc(OC)cc1 1 µM [activator, full curve, poor fit], CCN(CC)/C(=N/S(=O)(=O)c1ccc(C)cc1)c1ccccc1 5.01 µM [activator, single point], O=C(CSc1nnc2c(n1)[nH]c1ccccc12)NCc1ccccc1F 2.24 µM [activator, partial curve, poor fit], CCc1nnc(NC(=O)c2nn(-c3ccccc3)nc2C)s1 28.2 µM [activator, single point], Nc1nonc1-n1nnc(C(=O)N/N=C/c2ccc(OCc3ccccc3F)cc2)c1CNc1ccccc1 2.82 µM [activator, single point], CC/C(Cc1ccccc1)=N/NC(=O)CNC(=O)c1ccc(Cl)cc1Cl 3.16 µM [activator, single point], C=CCn1c(=O)c2c(C)c(C)sc2n2c(Nc3ccccc3)nnc12 5.01 µM [activator, single point], O=C(CC1C(=O)NCCN1Cc1ccc(F)c(F)c1)NCCn1cccn1 (stereo not given) 14.1 µM [activator, single point], COc1ccc(NC2CC(=O)N(c3cc([N+](=O)[O-])ccc3C)C2=O)cc1 (stereo not given) 10 µM [activator, single point], O=C(Nc1ccnc(-c2ccncc2)n1)c1ccc(Cl)cc1 11.2 µM [activator, partial curve, poor fit], C[C@@H]1CCC[C@@]2(O[C@H](CCO)C[C@H](O)[C@H]2O)O1 5.01 µM [activator, single point], Fc1ccc(Nc2nnns2)cc1 28.2 µM [activator, single point], CCc1ccc(NC(=O)CCc2ccc(C)o2)cc1 1 µM [activator, full curve], O=S(=O)(c1ccc(F)cc1)N1CCN(Cc2nnc(-c3ccccc3)o2)CC1 3.16 µM [activator, single point], COc1ccccc1N(C)S(=O)(=O)c1ccc(C(=O)OCC(=O)N(C(C)C)C(C)C)cc1 5.01 µM [activator, single point], COc1ccc(C(C)(C)C)cc1NS(=O)(=O)c1cccc2cccnc12 5.01 µM [activator, single point], CC(c1ccccc1)C1OCC(C[N+]2(C)CCCCC2)O1 (stereo not given) 4.47 µM [activator, single point], CC(C)c1ccc(C(C(=O)NC2CCCC2)N(C(=O)c2csnn2)C2CC2)cc1 (stereo not given) 3.55 µM [activator, single point]

activation, inactive:
Nc1o[nH]c(=O)c1Cc1ccccc1 6.07%, COc1ccc(S(=O)(=O)N(C)c2ccc(C(=O)Nc3ccccc3C(=O)N3CCOCC3)cc2)cc1OC -15.9%, CCOC(=O)NNC(=O)c1[nH]c2ccc(Br)cc2c1-c1ccccc1 9.38%, CCOc1ccc(CSC2=NCCN2)cc1[N+](=O)[O-] -19.5%, COCCn1c(SCCN2CCCCC2)nc2ccccc2c1=O 0%, Clc1ccccc1-c1nnc2sc(-c3ccc(Br)o3)nn12 14.4%, COc1ccccc1C(CNC(=O)CNC(=O)c1ccc(C)c(C)c1)N1CCCC1 (stereo not given) -8.06%, COc1ccc(OCC(O)CNCCOc2ccccc2OC)c(C(C)(C)C)c1 (stereo not given) -27.3%, COc1ccc(S(=O)(=O)N2CCN(C(=S)NCCc3ccccc3)CC2)cc1 -23.8%, COC(=O)c1ccc(CCc2cc(O)c(Br)cc2O)cc1 -53.9%, COc1cc(/C=N/NC(=O)c2cc(-c3cccs3)nc3ccccc23)ccc1O 30.3%, O=C(COC(=O)c1ccc(Cl)c(S(=O)(=O)NCc2ccccc2)c1)NC1CC1 27.7%, COc1ccc(Nc2nc(N)c(C(=O)c3ccc(F)cc3)s2)cc1 -12.3%, CNc1ccc(Br)cc(C(=O)/C=C/c2ccc3c(c2)OCO3)c1=O -43.9%
